Our source for the binding signal values is paper PMC7862700.

This is a selection; strong and weak results do not stand in their true shares. At the low end of the ranking, values are background and their order means little.

In this assay the target is SPI1 (UniProt P17947). Description: DAPPL (digital affinity profiling via proximity ligation, sequencing). The settings on record: 10 mM Tris-HCl pH 7.5, 50 mM NaCl, 1 mM DTT, 4% glycerol, room temperature, 30 min; GST-TFs on glutathione beads, 16-mer random dsDNA library, 0.1% …; high values mean tight binding; double strand, one strand shown; scale: fold enrichment (6-mer frequency, TF over GST control).
GGGTTA: the binding signal was 0.792.

In turn, AGACTA registered a binding signal of 0.732.

In turn, CATGAG registered a binding signal of 0.615.

CAGTAA displayed a binding signal of 0.738.

Turning to GCAGGC, the binding signal worked out at 0.719.

As for GACAAC, the binding signal came to 0.941.

GAACGC displayed a binding signal of 0.763.

As for CGGGGC, the binding signal stood at 0.575.

Consider CGCCAG, for which the binding signal is 0.659.

The sequence GTCAAT yielded a binding signal of 0.851.

The sequence AGGGAG came in with a binding signal of 0.375.

With CAGGTC, the binding signal is 0.681.

GTATAG returned a binding signal of 0.977.

The sequence GATAGG showed a binding signal of 0.73.

Regarding TAAGTG, the binding signal is 0.766.

The sequence AGACCC returned a binding signal of 0.64.

In turn, GGTGCG showed a binding signal of 0.564.

GCGCGA: the binding signal was determined as 0.728.

CAGGCG registered a binding signal of 0.271.

In turn, GTGACA came in with a binding signal of 0.803.

Regarding ACCAGG, the binding signal was 0.694.

GGGGAC showed a binding signal of 0.412.

GGGAAG: the binding signal was found to be 1.51.

CAAGTG gave a binding signal of 0.665.

As to GGGACA, the binding signal was 0.621.

The sequence GTGAAG had a binding signal of 0.675.

CGAGCG: the binding signal was 0.974.

Sequence GTGGAC had a binding signal of 0.866.

TGAGAC returned a binding signal of 0.518.

In turn, GGAGGA gave a binding signal of 0.255.

Regarding TGAGAG, the binding signal stood at 0.547.

As to AGGCGT, the binding signal was 0.492.

As to GAGAGA, the binding signal is 0.423.

GCCATG: the binding signal stood at 0.797.

As to GCGGTG, the binding signal was 0.533.

As to TGGAGC, the binding signal is 0.583.

GTCAGC had a binding signal of 0.747.

In the case of AGGTTG, the binding signal was 0.82.

Regarding GTCGTT, the binding signal worked out at 0.773.

GCAGCG yielded a binding signal of 0.734.
